Assay results as given in the supplement of paper PMC5662767.
Some of the results follow. Plates or batches differ in their baseline, so values are only roughly comparable.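 Smoothened with circularly permuted GFP in its cytoplasmic tail is carried by a clonal Drosophila S2 line; fluorescence appears when Hh-driven phosphorylation opens an inhibitory loop. Per-cell signal, read by flow cytometry, was scaled to Hh-stimulated untreated cells. Hits were consistent fluorescence-shifting groups of inhibitors sharing pathway targets, not single compounds.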

These molecules were tested on Drosophila S2 cl14 SmoIP sensor cells (assay: normalized SmoIP GFP fluorescence (untreated unstimulated = 0%, untreated Hh-stimulated = 100%); higher = more Smo activation sensor fluorescence). Conditions: stimulation: Hh conditioned medium (+Hh); compound concentration: 15 uM; 24 h.

SMILES	normalized SmoIP GFP fluorescence [%]
CC(C)N(C[C@H]1O[C@@H](n2cnc3c(N)ncnc32)[C@H](O)[C@@H]1O)[C@H]1C[C@@H](CCc2nc3cc(C(C)(C)C)ccc3[nH]2)C1	125
COc1cc(Nc2ncc(F)c(Nc3ccc4c(n3)NC(=O)C(C)(C)O4)n2)cc(OC)c1OC	135
CO[C@H]1C[C@@H]2CC[C@@H](C)[C@@](O)(O2)C(=O)C(=O)N2CCCC[C@H]2C(=O)O[C@H]([C@H](C)C[C@@H]2CC[C@@H](OC(=O)C(C)(CO)CO)[C@H](OC)C2)CC(=O)[C@H](C)/C=C(\C)[C@@H](O)[C@@H](OC)C(=O)[C@H](C)C[C@H](C)/C=C/C=C/C=C/1C [Temsirolimus]	94.3

Same assay, conditions: stimulation: mock conditioned medium (-Hh); compound concentration: 15 uM; 24 h

SMILES	normalized SmoIP GFP fluorescence [%]
CC(C)C[C@H](NC(=O)CNC(=O)c1cc(Cl)ccc1Cl)B1OC(=O)C(CC(=O)O)(CC(=O)O)O1	41.6
O=C(c1cncc(Br)c1)N1CCC(N2CCCC2)CC1	33.9
CCn1c2ccccc2c2cc(Nc3ccnc(NCCCN4CCOCC4)n3)ccc21 [ehop-016]	-1.34
CN1CCC(=C2c3ccccc3CC(=O)c3sccc32)CC1 [ketotifen-fumarate-zaditor]	11.6
OCc1ccc(-c2ccc(-c3ccc(CO)s3)o2)s1	9.51
Cc1ccccc1C(=O)Nc1ccc(C(=O)N2CCCC(N(C)C)c3ccccc32)cc1 (stereo unspecified) [mozavaptan]	7.06
C[C@H](NC(=O)[C@@H](O)c1cc(F)cc(F)c1)C(=O)N[C@@H]1C(=O)N(C)c2ccccc2-c2ccccc21	-12.7
O=C(Nc1c(Cl)cncc1Cl)c1ccc(OC(F)F)c(OCC2CC2)c1 [Roflumilast(Daxas)]	-15.6
